Drawing on PubChem BioAssay AID2685 (National Center for Advancing Translational Sciences (NCATS), 2010), this text covers AC50 and cell number change for 65 compounds.

The experiment in a line: qHTS Assay for Lipid Storage Modulators in Drosophila S3 Cells.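 As to cell number change: cells counted by Cell Tracker Red CMTPX staining in the red channel.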 Particulars: BODIPY lipid droplet fluorescence, 18-24 h; for cell number change: measured here: cell count max response, cells fed with added oleic acid. The procedure, abridged:
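Laser-scanning cytometry quantifies lipid droplet accumulation (500–530 nm total intensity; droplet/cell object ratio) in oleic acid-fed (400 uM added) Drosophila S3 cells treated with a concentration series. 20 uM Triacsin C defined 100% inhibition.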
A general note: Quantitative high-throughput screening tests each substance at several concentrations.

Where [1] appears, read: measured here: lipid fluorescence (Fed channel) AC50, cells fed with added oleic acid.
[2] abbreviates: measured here: cell number channel AC50, cells fed with added oleic acid.

The list shows a part of the results. Shown are side measurements of this screen, not its main read-out; they come without a call. The list favours compounds with an active or inconclusive main result. Words in brackets tell the shape of the fitted curve; partial curves, single points and poor fits give uncertain potencies.

Take `COc1nc(N)nc(NC23CC4CC(CC(C4)C2)C3)n1`: the AC50 under setting [1] was 6.51 µM [rising, single point].

`CC(C)COC(=O)/C(C#N)=C/c1c[nH]c2ccccc12`: the cell number change is -39.1%. Moreover, the AC50 under setting [2] is 7.31 µM [falling, partial curve]. Under setting [1], the AC50 was 8.2 µM [falling, partial curve].

Consider `O=C(COC(=O)c1ccc(F)cc1F)NC(=O)Nc1ccc2c(c1)OCCO2`, for which the cell number change was determined as 7.46%. Besides, under setting [1], the AC50 was 13 µM [rising, partial curve].

On to `CCOC(=O)c1ccccc1NC(=O)c1ccc(NS(C)(=O)=O)cc1`, for which the AC50 runs as follows: under setting [2], 0.259 µM [rising, full curve, poor fit]; under setting [1], 2.06 µM [rising, partial curve].

Take `O=C/C=C/c1c(-c2ccccc2)cc2oc3ccccc3cc1-2`: the cell number change is -24.5%.

On to `COc1ccc2nc(/N=C(\N)NC(=O)C(C)(C)C)nc(C)c2c1`, for which the cell number change was -46.8%. For the same compound, the AC50 under setting [2] is 14.6 µM [falling, single point]. The AC50 under setting [1] was 13 µM [falling, partial curve].

For `COCCCn1c(=S)[nH]c2sc3c(c2c1=O)CCCS3`, the cell number change is -70.9%. In addition, the AC50 under setting [2] is 29.1 µM [falling, single point].

Consider `OCCNc1nc2ccccc2n1-c1ccccc1`, for which the cell number change is -13.8%. Besides, the AC50 under setting [1] was 3.66 µM [falling, full curve, poor fit].

Turning to `O=C(c1nn(Cc2ccccc2)c(=O)c2ccccc12)N1CCc2ccccc2C1`, the cell number change is -25.4%. In addition, the AC50 under setting [1] is 1.3 µM [falling, full curve, poor fit].

Take `O=C(Nc1cccc(F)c1)C1CCN(S(=O)(=O)c2cnc[nH]2)CC1`: the cell number change came to 2.95%.

As to `CCOC(=O)n1c(=O)n(C)c2ccc(Cl)cc21`, the cell number change turned out to be 13.7%.

As to `CCCc1cc(=O)[nH]c(=S)[nH]1`, the cell number change stood at 13.6%. Further, under setting [1], the AC50 is 0.116 µM [falling, full curve, poor fit].

Consider `Cn1c(Cn2c(C(F)(F)F)nc3ccccc32)nc2ccccc21`, for which the cell number change came out at 24.7%. Moreover, under setting [2], the AC50 was 0.651 µM [rising, full curve, poor fit]. The AC50 under setting [1] was 29.1 µM [rising, single point].

Regarding `NC(=O)COC(=O)c1cc(Cl)cc(Cl)c1N`, the cell number change came out at 30.6%. For the same compound, the AC50 under setting [2] is 35.5 µM [rising, single point].

In the case of `CN(C)c1nc(C(F)(F)F)cc(=O)[nH]1`, the half-maximal activity concentration (AC50) under setting [2] was 6.51 µM [rising, single point].

Regarding `COc1ccc(CCC(=O)Nc2ccc(S(=O)(=O)N3CCCC3)cc2)cc1OC`, the cell number change was -22.6%. For the same compound, the AC50 under setting [1] is 0.82 µM [rising, full curve, poor fit].

`CO/N=C/C(=N\Nc1ccccc1)C(=O)c1ccccc1`: the cell number change was 34.8%. Further, under setting [2], the AC50 is 13 µM [rising, single point].

Take `Cc1cccc(NC(=S)N(CCN2CCOCC2)Cc2ccccc2F)c1`: the cell number change was determined as 45.6%. Also, the AC50 under setting [2] was 29.1 µM [rising, single point]. In addition, the AC50 under setting [1] was 29.1 µM [rising, single point].

`O=S(=O)(c1ccc2c(c1)CCCC2)N1CCNCC1`: the cell number change came to 16.8%. Also, the AC50 under setting [1] was 0.731 µM [falling, single point].

For the compound `Cc1ccc(C)n1-c1nn(S(=O)(=O)c2cccc3cccnc23)c2cccc(F)c12`, under setting [1], the AC50 is 29.1 µM [rising, single point].

`CCCCc1nnc(NC(=O)CSc2nc(O)c(Cc3ccccc3)c(=O)[nH]2)s1`: the AC50 under setting [1] is 1.3 µM [rising, full curve, poor fit].

On to `O=C(CN1c2cccc3cccc(c23)S1(=O)=O)Nc1ccccc1F`, for which the cell number change stood at 0.451%. For the same compound, the AC50 under setting [1] is 4.11 µM [rising, full curve].

Consider `COc1ccc(-c2csc3nc(C)n(-n4cccc4)c(=O)c23)cc1OC`, for which the cell number change was -1.92%. In addition, the AC50 under setting [1] is 29.1 µM [falling, single point].

As to `O=S(=O)(c1ccccc1)c1cc(O)ccc1O`, the cell number change came to 18.5%. Under setting [1], the AC50 was 29.1 µM [rising, single point].

For `CC(C)(C)CNC(CO)C12CC3CC(CC(C3)C1)C2` (stereo not drawn), the cell number change is -6%. For the same compound, under setting [1], the AC50 is 29.1 µM [falling, single point].

Turning to `O=C(O)c1ccc(N2CCCCCC2)c(N2C(=O)c3ccccc3C2=O)c1`, the cell number change is -19.8%. In addition, the AC50 under setting [1] was 20.6 µM [falling, single point].

In the case of `CN(c1ccc(F)cc1)S(=O)(=O)c1ccc(Cl)c(C(=O)Nc2ccc3c(c2)CCC3)c1`, the cell number change is -16.3%. For the same compound, the AC50 under setting [1] was 13 µM [falling, partial curve, poor fit].

`CCN(c1ccc(C)cc1)S(=O)(=O)c1nnc(NC(=O)c2ccco2)s1`: the cell number change is -15%.

Take `COc1ccc(CNC(=O)c2c(C)oc3c2C(=O)c2ccccc2C3=O)cc1`: the cell number change worked out at 12.7%. In addition, under setting [1], the AC50 was 2.31 µM [rising, partial curve, poor fit].

As for `COc1ccc(NS(=O)(=O)c2cc(Br)cc3c2N(C(C)=O)CC3)cc1`, the cell number change was -12.4%. The AC50 under setting [1] was 9.2 µM [falling, single point].

For the compound `CCC1Oc2ccc(C)cc2N(CC(=O)NCc2ccco2)C1=O` (stereo not drawn), the cell number change is -12%. For the same compound, under setting [1], the AC50 was 0.651 µM [falling, full curve, poor fit].

In the case of `CC(C)(Oc1ccc(Cl)cc1)C(=O)O/N=C(\N)c1ccncc1`, the cell number change is -4.17%.

Regarding `CCN(CC(=O)Nc1ccc(OC)cc1)C(=O)CSCc1c(C)noc1C`, the cell number change is -6.28%.

For `COC(=O)c1ccc(N)c(CS(=O)(=O)c2ccc(Cl)cc2)c1`, the cell number change is -8.33%.

For `O=C1c2cccnc2C(Nc2ccccc2Br)N1Cc1ccco1` (stereo not drawn), the cell number change was determined as 15%. In addition, the AC50 under setting [1] was 6.51 µM [rising, single point].

Consider `CC(=O)N1c2ccc(S(=O)(=O)NCCC(=O)NCc3ccc(Cl)cc3)cc2CC1C` (stereo not drawn), for which the cell number change is -8.07%.

For `CN(c1ncc(C(F)(F)F)cc1Cl)n1cc(C(=O)O)c2ccccc2c1=O`, the cell number change worked out at 28.7%.

On to `c1ccc(-n2cnnc2SCc2cn3ccsc3n2)cc1`, for which the cell number change came out at 1.91%. Moreover, the AC50 under setting [1] was 2.31 µM [rising, full curve].

With `O=C(CCCN1C(=O)/C(=C/c2ccccc2Cl)SC1=S)NNC(=O)c1ccccc1Cl`, the cell number change was -0.751%. Further, under setting [1], the AC50 is 8.2 µM [falling, partial curve, poor fit].

Consider `CN(C1CCCC1)C1CCN(C(=O)CNC(=O)/C=C/c2ccccc2)CC1`, for which the cell number change was -2.57%. The AC50 under setting [2] is 0.651 µM [rising, single point].

As for `Cc1ccc(C)c(C(=O)Nc2ccncc2)c1`, the cell number change was found to be 8.03%.

Take `COc1ccc(Cl)cc1NC(=O)CN(C)C(=O)CNC(=O)C12CC3CC(CC(C3)C1)C2`: the cell number change was found to be 15.5%.

Consider `C=CCn1c(SCC(=O)Nc2ccc(S(N)(=O)=O)cc2)nnc1-c1cnccn1`, for which the cell number change is 35.4%. Also, under setting [2], the AC50 was 23.1 µM [rising, single point].

Take `CC(=O)Nc1ccc(NC(=O)C(C)OC(=O)/C=C/c2cccs2)cc1` (stereo not drawn): the cell number change is 8.17%. Besides, under setting [1], the AC50 is 0.116 µM [falling, full curve, poor fit].

For the compound `Cc1cccc(C(=O)N2CCN(c3ccc([N+](=O)[O-])c(N4CCOCC4)c3)CC2)c1`, the cell number change is -17.5%. Further, the AC50 under setting [1] is 29.1 µM [falling, single point].

With `COc1ccc(-c2nc3cc(NC(=O)Cc4ccc(OC)c(OC)c4)ccc3o2)cc1`, the cell number change is -122%. The AC50 under setting [2] is 1.84 µM [rising, partial curve].

Regarding `CC(=O)Nc1ccc(OC(=O)c2cccs2)cc1`, the cell number change was -16.1%.

`CCC(=O)Nc1nnc(SCC(=O)Nc2ccc3c(c2)OCO3)s1`: the cell number change was -4.18%.

In the case of `CCC(c1nnnn1C(C)(C)C)N1CCN(Cc2ccccc2OC)CC1` (stereo not drawn), the cell number change is -21.8%. Further, the AC50 under setting [1] was 29.1 µM [falling, single point].

Consider `COCCNc1nnc(SCC(=O)NC2CCCCC2)s1`, for which the cell number change is -22.7%. The AC50 under setting [1] is 6.51 µM [falling, partial curve, poor fit].

`COc1ccc(/C=C/C(=O)c2ccccc2)cc1Cn1nnc2ccccc21`: the cell number change is -17%. For the same compound, under setting [1], the AC50 is 29.1 µM [falling, single point].

Consider `CS(=O)(=O)n1nc(OC(=O)c2cc(Br)ccc2Cl)cc1N`, for which the cell number change is -10.7%. Further, under setting [1], the AC50 is 3.26 µM [rising, single point].

With `O/N=C(\c1ccccn1)C1CC1c1ccccc1` (stereo not drawn), the cell number change is 47.8%. The AC50 under setting [2] is 0.103 µM [rising, full curve, poor fit]. In addition, the AC50 under setting [1] was 7.31 µM [rising, partial curve, poor fit].

On to `Cc1ccc(CNC(=O)C(=O)NCCC2CCCCN2S(=O)(=O)c2ccc(C)cc2)cc1` (stereo not drawn), for which the cell number change is -49%. Further, under setting [2], the AC50 was 29.1 µM [falling, single point].

Turning to `N#Cc1c(-c2ccccc2)nc2n1CCS2`, the cell number change turned out to be 12.1%. Also, the AC50 under setting [2] is 0.00461 µM [rising, full curve, poor fit].

As for `CC1CCN(S(=O)(=O)c2ccc(C(=O)Nc3sccc3C(N)=O)cc2)CC1`, the cell number change is -19.4%. Moreover, the AC50 under setting [1] is 29.1 µM [falling, single point].

For `COc1ccc2c(Cl)c(C(=O)NN)sc2c1`, the cell number change was -22.9%. Further, under setting [1], the AC50 is 0.82 µM [falling, full curve, poor fit].

Take `CCOC(=O)c1c(NC(=O)/C=C/c2ccc3c(c2)OCO3)sc(C)c1CC`: the cell number change stood at 52.6%. Moreover, under setting [2], the AC50 is 32.6 µM [rising, partial curve, poor fit]. Moreover, the AC50 under setting [1] is 5.8 µM [rising, full curve].

With `Cn1c(=O)c2c(nc(NCc3ccco3)n2C)n(C)c1=O`, the cell number change turned out to be 4.53%.

Take `CC(C)NC(=O)CN(C(=O)CCC(=O)Nc1nccs1)c1ccc(C(C)C)cc1`: the cell number change came out at 0.525%.

Turning to `CCC(=O)Nc1ccc(S(=O)(=O)Nc2cccnc2)cc1`, the cell number change is -1.76%. Also, under setting [1], the AC50 was 4.11 µM [falling, partial curve].

For `CCOC(=O)c1ccc2c(c1)nc(-c1ccc(F)cc1)c1nccn12`, the cell number change is -56.4%. The AC50 under setting [2] is 29.1 µM [falling, partial curve, poor fit]. Moreover, the AC50 under setting [1] is 4.11 µM [rising, partial curve].

For the compound `O=C1c2ccccc2C(=O)N1CCCCCCc1ccccc1`, the cell number change is -4.4%. Besides, the AC50 under setting [1] is 29.1 µM [falling, partial curve, poor fit].

With `CCc1nc2ccccc2c(C(=O)OCC(=O)Nc2cccc(S(=O)(=O)N3CCOCC3)c2)c1C`, the cell number change was -22.4%. Besides, the AC50 under setting [1] is 0.0058 µM [falling, full curve, poor fit].

As to `CC(C)(C)C(=O)N1CCC(O)(CS(=O)(=O)c2ccc(Cl)c(Cl)c2)CC1`, the cell number change is 45%. Besides, the AC50 under setting [2] was 29.1 µM [rising, single point].

For orientation: AC50 means the concentration giving half of the maximal activity seen. Higher therefore signals activity only at high concentration.
